Test results published in patent publication US20260276636A1, “METHOD FOR SPECIFIC AND RAPID QUANTIFICATION OF THE TOTAL VIABLE BACTERIAL COUNT IN RAW MILK” (National Institute of Metrology, priority 2023, published 2026).

Test system: Bacillus subtilis
Assay: Detection of bacterial viability (SYTO9/PI, flow cytometry)
Details: 2 h
Experimental: • 1. Culture of bacterial strains. After the four bacterial strains were activated on a nutrient agar plate, a single colony was picked, inoculated to TSB medium (10 g/L peptone, 3 g/L beef extract powder, and 5 g/L sodium chloride), incubated at 37° C. for 6 h to the mid-logarithmic stage, and then centrifuged at 8000 rpm for 5 min to collect the bacterial cells. The collected bacterial cells were suspended in fresh TSB medium at a bacterial suspension concentration of approximately 10^7 cells/mL. • 2. Antibiotics. […] Bacterial growth was analyzed using a microplate reader, and the smallest concentration of antibiotics that could inhibit the growth of bacteria was defined as the minimum inhibitory concentration. • 4. […] After centrifugation at 8000 rpm, the bacterial cells were collected and resuspended in the PBS buffer, and the changes in the number of bacteria in the sample were analyzed using the forward scatter signals on the flow cytometer. • 5. […] The above labeling system was left at room temperature for 30 min in the dark, washed and centrifuged with PBS twice, and the percentages of viable and dead bacteria were analyzed using a flow cytometer. […]

## O=C(O)c1cn(C2CC2)c2cc(N3CCNCC3)c(F)cc2c1=O [Ciprofloxacin, ciprofloxacin]
  bacterial viability after antibiotic treatment: 79.7%
